Reference: PubChem BioAssay AID485353 (National Center for Advancing Translational Sciences (NCATS), 2010)
Among all 330,000 compounds or so, about 610 (0.18%) were called active. The inconclusive results got no clear call from the source; some entries with a clear call stand among them for comparison. Calls come from the whole dose curve. Where the call is inconclusive, the potency comes from a doubtful curve fit.
Potency is the fitted concentration of half-maximal effect.

Test: qHTS of Yeast-based Assay for SARS-CoV PLP; note: nearly all actives have a fitted effect of over 55% in size
Settings: S. cerevisiae expressing SARS-CoV PLpro; Potency: growth rescue; series mostly up to 32.9 µM
For `O=[P+](Cc1ccccc1)Cc1ccccc1`, the Potency was inconclusive: 3.55 µM [activator, partial curve].
In the case of `CSc1ccc(CNc2cccc3ccccc23)cc1`, the Potency is reported as “inactive”.
With `Cc1cc(S(=O)(=O)N2CCCOC2CNC(=O)C(=O)NCc2ccco2)ccc1F` (stereo not drawn) the Potency was “inactive”.
For `COc1ccccc1-c1nn2c(=O)cc(C)nc2s1`, the Potency was inconclusive: 20 µM [activator, single point].
With `COc1ccc(Cn2c(C)ccc2C)cc1` the Potency was “inactive”.
In the case of `Cc1cc(Br)ccc1OCC(=O)NNC(=O)c1cnccn1`, the Potency is reported as inconclusive: 11.2 µM [activator, single point].
For `CC(=O)Nc1ccc(S(=O)(=O)NCCc2cc3ccc(C)c(C)c3[nH]c2=O)cc1`, the Potency was inconclusive: 20 µM [activator, single point].
For `Cc1[nH]n(C(N)=S)c(=O)c1N=Nc1ccc(S(=O)(=O)N2CCCCCC2)cc1`, the Potency was inconclusive: 10 µM [activator, single point].
In the case of `CCCCn1[nH]c(-c2ccccc2)cc1=O`, the Potency is reported as inconclusive: 5.01 µM [activator, partial curve].
With `CCOc1ccc(CN(C(=O)/C=C/c2ccco2)C2CCS(=O)(=O)C2)cc1` (stereo not drawn) the Potency was “inactive”.
With `CCN(CC)C(=O)c1cccc(NC(=O)CC23CC4CC(CC(C4)C2)C3)c1` the Potency was “inactive”.
With `COc1ccc(CCNC(=O)C(=O)NCC2CCCO2)cc1` (stereo not drawn) the Potency was “inactive”.
For `COc1ccc(CCCc2nnc(SCC(=O)Nc3nccs3)n2C)cc1C`, the Potency was “inactive”.
With `CCN(CC)c1ccc(/C=N/Nc2nc(C)cc(C)n2)c(O)c1` the Potency was active: 5.01 µM.
For `Cc1ccc(Nc2nnc(SC(C)C(=O)Nc3c(C)n(C)n(-c4ccccc4)c3=O)s2)cc1` (stereo not drawn), the Potency was active: 2.82 µM.
For `CN(C1=C(N2CCCCC2)C(=O)c2ccccc2C1=O)c1ccccc1`, the Potency was inconclusive: 12.6 µM [activator, single point].
With `O=C(c1ccco1)N1CCN(C(=S)NCc2ccc(F)cc2)CC1` the Potency was inconclusive: 2.82 µM [activator, full curve].
For `CN1CCCN=C1/C=C/c1cccs1`, the Potency was inconclusive: 20 µM [activator, single point].
For `CCCCCCn1nc(C(=O)Nc2nc3c(s2)CCCC3)c2ccccc2c1=O`, the Potency was inconclusive: 20 µM [activator, single point].
With `O=C(CN1CC(c2ccccc2)CC1=O)N/N=C/c1cc(Br)ccc1O` (stereo not drawn) the Potency was active: 10 µM.
For `Cc1c(Oc2ccc(C(F)(F)F)cc2[N+](=O)[O-])ccc2c3c(c(=O)oc12)CCC3`, the Potency was inconclusive: 20 µM [activator, single point].
For `COC1Cc2ccccc2N(C(=O)N2CCN(CCO)CC2)c2ccccc21` (stereo not drawn), the Potency was inconclusive: 2 µM [activator, full curve].
With `CCOC(=O)C1CCN(C(=O)CCCOc2ccccc2)CC1` the Potency was “inactive”.
For `CC(NC(=O)CN(C)S(=O)(=O)c1ccc2c(c1)c(=O)n(C)c(=O)n2C)c1ccccc1` (stereo not drawn), the Potency was “inactive”.
With `Cc1ccc(S(=O)(=O)NCCC(=O)NC(C)c2ccccc2)cc1` (stereo not drawn) the Potency was inconclusive: 3.55 µM [activator, single point].
With `CCCCNC1c2ccccc2C(=O)N1Cc1ccccc1` (stereo not drawn) the Potency was inconclusive: 20 µM [activator, single point].
With `O=C(c1ccco1)N1CCN(c2ncnc3c2[nH]c2ccc(Br)cc23)CC1` the Potency was inconclusive: 3.98 µM [activator, single point].
With `Cc1ccccc1N(CC(=O)NC1CCCCC1)C(=O)c1csnn1` the Potency was inconclusive: 11.2 µM [activator, single point].
With `CC(CCN1CCN(CCO)CC1)c1ccccc1` (stereo not drawn) the Potency was “inactive”.
For `COc1cccc(OC)c1C(=O)Nc1ccccc1C(=O)N1CCCCCC1`, the Potency was inconclusive: 17.8 µM [activator, single point].
For `COc1ccc(CC(=O)NCC2CCCN(Cc3ccc(OC)cc3F)C2)cc1` (stereo not drawn), the Potency was inconclusive: 17.8 µM [activator, single point].
For `Fc1cccc(/C=N/Nc2cc(N3CCOCC3)ncn2)c1`, the Potency was active: 2.82 µM.
In the case of `CCN(CC)c1ccc(NC(=O)c2ccc3c(c2)OCO3)cc1`, the Potency is reported as inconclusive: 12.6 µM [activator, partial curve].
With `Cc1sc(NC(=O)c2ccco2)c(CN2CCCCC2)c1C` the Potency was inconclusive: 3.16 µM [activator, single point].
With `O=C(NCCCN1CCOCC1)c1c(O)c2ccccc2[nH]c1=O` the Potency was inconclusive: 20 µM [activator, single point].
For `CCc1sc(C(=O)NCCc2ccc(S(N)(=O)=O)cc2)cc1C`, the Potency was “inactive”.
In the case of `CCn1cc(C(=O)NCc2ccco2)c(=O)c2cc(S(=O)(=O)N3CCCCCC3)ccc21`, the Potency is reported as inconclusive: 11.2 µM [activator, partial curve].
In the case of `COc1cc(C2Nc3cccc4cccc(c34)N2)ccc1O`, the Potency is reported as inconclusive: 20 µM [activator, single point].
With `CCCCNC(=S)Nc1ccc(Cl)cc1` the Potency was inconclusive: 12.6 µM [activator, single point].
In the case of `Clc1ccccc1-c1nnc2sc(-c3cccs3)nn12`, the Potency is reported as active: 22.4 µM.
In the case of `CCOC(=O)C1CCCN(c2ncnc3c2oc2ccccc23)C1` (stereo not drawn), the Potency is reported as “inactive”.
With `Cc1cc(OC(C)C(=O)NCCCN2CCCC2=O)c2c(C)c(C)c(=O)oc2c1` (stereo not drawn) the Potency was inconclusive: 3.98 µM [activator, single point].
For `Cn1c(SCC(=O)NC2CCCCC2)nnc1-c1cc2cc(Cl)ccc2o1`, the Potency was inconclusive: 12.6 µM [activator, partial curve, poor fit].
With `Cc1ccc(C(=O)NC2CCN(CC(=O)Nc3ccccc3Cl)CC2)cc1` the Potency was inconclusive: 7.94 µM [activator, partial curve].
In the case of `O=C(OCN1C(=O)c2ccccc2C1=O)c1cccc(OC(F)F)c1`, the Potency is reported as “inactive”.
With `COc1ccc(OC)c(NC(=O)NNS(=O)(=O)c2ccc(C)cc2C)c1` the Potency was “inactive”.
For `O=C1c2ccccc2NC(c2ccc3c(c2)OCCO3)N1c1ccc2c(c1)OCCO2` (stereo not drawn), the Potency was inconclusive: 4.47 µM [activator, single point].
In the case of `CC(C)CN(CC(C)C)C(=S)NC1CCCCC1`, the Potency is reported as inconclusive: 8.91 µM [activator, partial curve, poor fit].
With `COc1ccc(NC(=O)c2ccc(-c3ccccc3)cc2)cc1S(=O)(=O)N1CCOCC1` the Potency was “inactive”.
With `Cc1ccccc1-n1cnc2cc(NCc3cccs3)ccc21` the Potency was inconclusive: 10 µM [activator, partial curve].
In the case of `O=[N+]([O-])c1ccc(O)c(/C=N/Nc2ccccn2)c1`, the Potency is reported as inconclusive: 3.98 µM [activator, single point].
With `CC(=O)NC(Cc1c[nH]c2ccccc12)C(=O)NCCc1ccccc1` (stereo not drawn) the Potency was inconclusive: 20 µM [activator, single point].
With `COc1cc(/C=C/C(=O)OCN2C(=O)c3ccccc3C2=O)ccc1OC(F)F` the Potency was inconclusive: 3.16 µM [activator, single point].
In the case of `O=C(O)CCn1c(-c2ccccn2)nc2ccccc21`, the Potency is reported as inconclusive: 12.6 µM [activator, single point].
In the case of `O=C1CCC(C(=O)N2CCCCO2)CN1Cc1ccc(Cl)cc1` (stereo not drawn), the Potency is reported as inconclusive: 20 µM [activator, single point].
In the case of `CCOC(=O)c1ccc(NC(=O)CCn2c(=O)oc3ccccc32)cc1`, the Potency is reported as inconclusive: 14.1 µM [activator, single point].
In the case of `Cc1ccsc1C1C(C#N)=C(N)OC2=C1C(=O)CCC2` (stereo not drawn), the Potency is reported as “inactive”.
For `Cc1ccccc1NC(=O)c1sc2nc3c(c(-c4ccco4)c2c1N)CCC3`, the Potency was “inactive”.
In the case of `O=C(CSc1nnc2ccccn12)NC(=O)c1ccccc1Cl`, the Potency is reported as “inactive”.
In the case of `O=C(NC1CC2CCCC(C1)N2Cc1ccc(F)cc1)c1ccc(F)cc1` (stereo not drawn), the Potency is reported as “inactive”.
With `CCC(=O)N1CCc2cc(S(=O)(=O)NC(C(=O)NC3CCCc4ccccc43)C(C)C)ccc21` (stereo not drawn) the Potency was inconclusive: 22.4 µM [activator, partial curve, poor fit].
In the case of `COc1cccc(NC(=O)CNC(=O)N2CC(=O)Nc3ccccc32)c1`, the Potency is reported as “inactive”.
For `O=C(CSc1ncn[nH]1)N1N=C2/C(=C/c3ccccc3)CCCC2C1c1ccccc1` (stereo not drawn), the Potency was inconclusive: 8.91 µM [activator, single point].
For `O=C(Nc1ccc(Cl)cc1)c1cc(Br)ccc1OCC(=O)N1CCOCC1`, the Potency was inconclusive: 0.398 µM [activator, partial curve, poor fit].
For `CC(=O)C1=C(O)C(=O)N(c2ccc(F)cc2)C1c1ccc(C)cc1` (stereo not drawn), the Potency was inconclusive: 11.2 µM [activator, single point].
With `OCCC1CN(Cc2ccc(F)cc2)CCN1CCCc1ccccc1` (stereo not drawn) the Potency was inconclusive: 0.891 µM [activator, full curve].
In the case of `Cc1c(C(=O)NCc2ccc3c(c2)OCO3)oc2ccc(S(=O)(=O)N3CCCC3)cc12`, the Potency is reported as “inactive”.
In the case of `CCOc1ccc(C(=O)CC(=O)C(=O)NCCc2ccc(OC)c(OC)c2)cc1`, the Potency is reported as active: 20 µM.
With `Cc1ccc(-c2noc(C3CCCN(C(=O)c4cccc(F)c4)C3)n2)cc1` (stereo not drawn) the Potency was inconclusive: 20 µM [activator, single point].
For `O=C(c1cccnc1)N1CCN(Cc2ccccc2Br)CC1`, the Potency was “inactive”.
In the case of `COC(=O)c1ccc(CNC(=O)c2ccc(NS(=O)(=O)c3ccc4[nH]c(=O)[nH]c4c3)cc2)cc1`, the Potency is reported as inconclusive: 3.16 µM [activator, partial curve].
In the case of `COc1ccc(Cn2c(O)c(/C=N/NC(=O)c3cccnc3)c3ccccc3c2=O)cc1`, the Potency is reported as inconclusive: 0.355 µM [activator, full curve].
In the case of `O=[N+]([O-])c1cccc(-c2ccc(/C=N/NC(=S)Nc3ccccc3)o2)c1`, the Potency is reported as inconclusive: 17.8 µM [activator, single point].
